# Paper PMC10249096, “Design, Synthesis, and Evaluation of a New Series of Hydrazones as Small-Molecule Akt Inhibitors for NSCLC Therapy” (ACS Omega, 2023)
# System: A549 human lung adenocarcinoma cells
# Test: MTT test, cytotoxicity on A549 cells
# Format: cell-based
# Conditions: selectivity index L929/A549
# Experimental: A549 and L929 cell lines were purchased from American Type Culture Collection (Manassas, VA, USA). Cells were cultured, and drug treatments were performed as previously explained.[46]
# MTT assay was conducted as previously described[47] with slight modifications.[48] Cisplatin was used as a positive control. The assay was performed in triplicate. Half-maximal inhibitory concentration (IC50) data (μM) were expressed as mean ± SD.
row,Compound,SI (IC50 for L929 cells/IC50 for A549 cells)
1,"CN(C)c1ccc(C=NNC(=O)CSc2nc3cc(Cl)ccc3o2)cc1 [Compound 3a, N′-(4-Dimethylaminobenzylidene)-2-[(5-chlorobenzoxazol-2-yl)thio]acetohydrazide]",> 5.47
2,"O=C(CSc1nc2cc(Cl)ccc2o1)NN=Cc1ccc(N2CCCCC2)cc1 [Compound 3e, N′-[4-(Piperidin-1-yl)benzylidene]-2-[(5-chlorobenzoxazol-2-yl)thio]acetohydrazide]",> 2.84
3,"CN1CCN(c2ccc(C=NNC(=O)CSc3nc4cc(Cl)ccc4o3)cc2)CC1 [Compound 3g, N′-[4-(4-Methylpiperazin-1-yl)benzylidene]-2-[(5-chlorobenzoxazol-2-yl)thio]acetohydrazide]",5.94
4,"O=C(CSc1nc2cc(Cl)ccc2o1)NN=Cc1ccc(-n2ccnc2)cc1 [Compound 3i, N′-[4-(1H-Imidazol-1-yl)benzylidene]-2-[(5-chlorobenzoxazol-2-yl)thio]acetohydrazide]",> 5.98
